# Results of single-concentration screens

Chains of the proteins cited; added tags and fusions are not shown.
UniProt P9WFT3, whole entry: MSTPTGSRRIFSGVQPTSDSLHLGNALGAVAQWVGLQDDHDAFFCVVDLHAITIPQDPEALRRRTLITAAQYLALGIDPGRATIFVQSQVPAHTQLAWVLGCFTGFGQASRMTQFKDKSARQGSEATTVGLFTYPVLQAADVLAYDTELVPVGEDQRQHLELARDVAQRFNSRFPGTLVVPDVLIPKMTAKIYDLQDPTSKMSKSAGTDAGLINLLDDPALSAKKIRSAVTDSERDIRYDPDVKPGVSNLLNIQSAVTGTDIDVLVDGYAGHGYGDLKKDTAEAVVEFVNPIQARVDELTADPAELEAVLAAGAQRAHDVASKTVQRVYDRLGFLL

A: 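Tryptophan-tRNA ligase, Mycobacterium tuberculosis (UniProt P9WFT3). Enzyme assay of tryptophanyl-tRNA synthetase; the read-out is not stated. Concentration: 10 µM. Direction is not recorded; retested compounds ran higher, which suggests that high means inhibition. Size under these conditions: about 65,000 compounds, about 64 of them at 50% or above in at least one test.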
B: 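Cell assay of Leishmania donovani living inside macrophages; the read-out is not stated. Tested at 30 µM. The record gives no direction; compounds that gave an IC50 in retests scored well above the rest, so higher reads as stronger inhibition. About 69,000 compounds were tested under these conditions; 1.5% (about 1,000) showed 50% or more at least once.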

Each number is a percent effect as filed.
The record does not define 0% and 100%; most values in the screen are far below 50% and negative numbers occur (in some assays of this library far below -100).
The compounds are a random part of those screened.
Two or more numbers in one place are separate tests of the same structure; such repeats can differ widely.
A dash means the value is not listed here; it may have been measured.

compound | A | B
O=C(NC1CC1)N1CC[C@H]2[C@H]1CCN2c1ncccn1 | -2.762 | -
CCOCCCC(=O)NCC(c1ccccc1)N1CCc2sccc2C1 (centres undefined) | 5.285 | 7.252
Cc1cccc(C(=O)N2CCN(CCOC(C)C)CC2)n1 | -0.3096 | -3.695
CCC1CN(CC(=O)NCCC#N)CCO1 (centres undefined) | 1.652 | 34.44
Cc1nc(C2CCN(Cc3ncc[nH]3)CC2)no1 | 9.913 | -
Cc1ccc(-n2nnc(CC(=O)N3CCN(C4CC4)CC3)c2C)cc1 | -0.06456 | 3.865
CCOc1ncccc1NC(=O)N1CCN(c2ccc(O)cc2)CC1 | -0.9676 | 36.06
[H][C@]12CN(C(C)=O)CCN1C[C@H](c1ccccc1)[C@H]2C(=O)OCC | - | -1.941
Cc1nnc(N2CCC(CN(C)C(C)C)CC2)c(C#N)c1C | 6.177 | -5.185
c1csc(-c2noc(CN3CCc4cncnc4C3)n2)c1 | -6.361 | 27.54
[H][C@@]12CS(=O)(=O)C[C@]1([H])N(Cc1ccc(F)c(C)c1)CCN2C(=O)C1CCC1 | - | -0.01422
Cc1c(C2SCC(=O)Nc3c2c(O)nn3C2CCCCC2)cnn1C (centres undefined) | 0.06817 | -14.27 & 18.52
COC(=O)c1ccc(CNCc2ccn(C)n2)cc1 | - | 15.54
Cc1noc(C)c1CC(=O)N1CCc2sccc2C1 | -0.3894 | -23.89
Cc1ccc(Cl)c(CN2CCC(c3nccn3C(C)C)CC2)c1F | 2.776 | -4.133
Cc1cc(C(F)(F)F)cc(N2C[C@@H](CN3CCOCC3)[C@@H](CO)C2)n1 | 3.807 | 25.41
CC(=O)N1CCCc2sc(C(=O)Nc3ccc(C)nc3)nc21 | -6.404 | 1.372
Cc1nc(CN2CCCn3c(nc(Cn4cncn4)cc3=O)C2)cs1 | -7.286 | -
O=C(O)C(F)(F)F.[H][C@@]12CCN(C(=O)c3cscn3)[C@@]1([H])CCN2CC1CCOCC1 | - | 11.77
O=C(Cn1nc2c(cc1=O)CSCC2)NC(Cc1ccccc1)C(=O)O (centres undefined) | 24.72 | -8.93
CN(CCO)C[C@@H]1CN(Cc2ccccc2C#N)C[C@@H]1CO | -2.379 | 12.29
Cc1ccc(CN2CCc3ncnc(-c4ccncc4)c3CC2)o1.O=C(O)C(F)(F)F.O=C(O)C(F)(F)F | - | 11.42
CCc1nnc(C(C)N2CCc3cncnc3C2)o1 (centres undefined) | 0.9288 | 22.53
CC(=O)N1CCc2c(nc(N(C)C)nc2NCc2cccs2)C1 | 0.805 | -4.511
N#Cc1ccc(S(=O)(=O)N2CSCC2C(=O)NCC(F)(F)F)cc1 (centres undefined) | -3.323 | 16.8
COCCC1(CO)CCCN(CCCc2ccccc2)C1 (centres undefined) | 0.5387 | 5.121
CCN(Cc1cc(Cl)ccc1OC)Cc1nccn1C | -4.296 | -1.122
CN(Cc1cnn(C)c1)C(=O)c1ccc(Cl)c(N2CCNC2=O)c1 | -1.768 | -0.3796
CCCN1CCCC(O)(c2nc(C)c(COc3ccccc3)s2)CC1 (centres undefined) | -2.026 | -5.482
COc1ccc(-n2cccn2)cc1S(=O)(=O)N1C[C@H](C2CC2)[C@@H](N)C1 | 4.831 | 16.91
Cc1cnc(C(=O)N2CCC3(CC2)CC(c2ccncc2)C(=O)N3)cn1 (centres undefined) | 2.278 | 12.77
COCCCN(CCOC)C(=O)Nc1ccccc1-n1cccn1 | -0.4402 | -17.64
CN1CCC(c2nnc3n2CCN(S(=O)(=O)c2ccccc2)C3)CC1 | -0.3906 | -1.205
CC(=O)N(C)Cc1cncc(C2CCCN2C2CCOCC2)n1 (centres undefined) | -10.23 | 41.77
O=C(Cc1cccs1)NCC1COCc2c(-c3ccoc3)nnn2C1 (centres undefined) | 1.187 | 16.31
Cc1ncsc1C(=O)NCc1cc2n(n1)CCN(C(=O)N(C)C)C2 | -1.205 | 0.9525
COCCOCC(=O)NC(C#N)c1ccccc1C (centres undefined) | 6.409 | -3.881
O=C(NCC(=O)N1CCc2ccccc2C1)c1cnccn1 | -0.143 | 17.21
O=C1CC(NS(=O)(=O)c2ccc3ccccc3c2)CN1 (centres undefined) | 2.641 | 37.02
Cc1cc(C)n(CC2CCCN2CC(=O)NC2CCOCC2)n1 (centres undefined) | 2.158 | 7.592
O=C(O)C(F)(F)F.[H][C@@]12C[C@@H](c3nc(C4CC4)cs3)O[C@]1([H])CN(C(=O)C1CCOCC1)C2 | - | 16.59
CCCc1n[nH]c(C2CN(C(=O)c3cncnc3C)CCO2)n1 (centres undefined) | 1.687 | 8.071
CCC(=O)N1CCC(Cc2ccccc2-c2ccccc2)(C(N)=O)C1 (centres undefined) | 0.1762 | 19.01
Cc1c(NCc2ccc(C#N)cc2)cccc1S(=O)(=O)NC1CC1 | 0.551 | -80.77
O=C(O)C(F)(F)F.[H][C@@]12CCC(=O)N(CCOC)[C@]1([H])CCN2Cc1ccc(C)s1 | - | 24.25
CN1[C@H](CN2CCCC2)C[C@@H]2CN(Cc3ccoc3)CC[C@@H]21 | -0.8721 | -
COc1ccnc(N2CCN(C(=O)N3CCOCC3)CC2)n1 | -1.827 | -39.17
O=C(NCc1ccccc1)c1nn(C2CCS(=O)(=O)C2)c2c1CCCC2 (centres undefined) | -2.712 | 25.9
COCCC(=O)N1C[C@@H](c2cccc(OC)c2)[C@@]2(CCCCC(=O)N2)C1 | -3.329 | 2.033
O=C1CCCN1CCN1CCCCC1Cn1cncn1 (centres undefined) | -5.556 | 26.18
Cc1nn(C)c(C)c1CCC(=O)NCC1(C(N)=O)CCOCC1 | 2.877 | 10.21
O=C(c1ncc(F)cc1F)N1CCC(c2ncc[nH]2)CC1 | -12.53 | 29.45
CCn1cc(SCC(=O)N2CCCC(O)(CO)C2)c2ccccc21 (centres undefined) | -3.226 | 4.067
CNC(=O)C1Cn2ccnc2C2(CCN(Cc3cccc(C)n3)CC2)O1 (centres undefined) | 1.482 | -
COc1cc2c(cc1CNCc1ccnc(-n3cccn3)c1)OC(C)C2 (centres undefined) | 4.285 | -
O=C(O)C(F)(F)F.O=C(O)C(F)(F)F.O=C1Nc2ccccc2C12CCN(Cc1ccccn1)CC2 | - | 7.054
CCN(Cc1nc2c(cnn2C)c(=O)[nH]1)Cc1cccs1 | -0.07819 | 14.29
Cc1ccccc1NC(=O)Nc1c[nH]c(=O)[nH]c1=O | 3.732 | 4.427
O=C(O)C(F)(F)F.O=C(O)C(F)(F)F.[H][C@@]12C[C@H](C(=O)NCC3CC3)N(C)[C@]1([H])CN(Cc1ccc(C)o1)C2 | - | 12.14
Cc1nn(C)c(N(C)C)c1CNCC(O)COc1ccc(F)cc1 (centres undefined) | -0.3564 | 21.84
Cc1cc(C)n(CC2CCCCN2CCC(=O)Nc2cc(C)on2)n1 (centres undefined) | 0.5206 | 0.1496
COc1nn(C)cc1C(=O)N1CCC(C)CC1 | 17.47 | -5.14
O=C(NCCn1nc2ccccn2c1=O)c1cc[nH]n1 | 0.8244 | 0.6117
CC(C)c1nc2n(n1)CC(NCc1nc(C3CC3)no1)CC2 (centres undefined) | -5.508 | 2.029
COCCN1CCCC2(CCN(c3ccsc3)C2=O)C1 (centres undefined) | -6.596 | -
[H][C@]12COC[C@@H](NS(C)(=O)=O)[C@@]1([H])CN(Cc1ccoc1)C2 | - | 12.96
Cc1nc(C)n(CC2CCCN(CC(=O)Nc3cc(C)on3)C2)n1 (centres undefined) | -2.184 | 7.072
Cn1c(CN2CCOCC2)nnc1C1CCCN(C(=O)CCC2CC2)C1 (centres undefined) | -1.458 | 15.46
Cc1csc(NC(=O)CN2CCc3c(nc(C4CC4)n3C)C2)n1 | -2.596 | -33.21
Cc1ccc(OCc2occc2C(=O)N2C[C@@H]3[C@@H](CN(C)C)[C@@H]3C2)cc1 | 2.857 | -
Cc1csc(N2CCN(CCCN3CCCC3=O)CC2)n1 | -3.381 | -19.45
CCOC1CC2(CCN(Cc3nccn3C)CC2)C1.O=C(O)C(F)(F)F | - | 10.79
COc1ccccc1C(=O)NC(CC(=O)O)c1cccs1 (centres undefined) | 5.166 | -7.363
O=C(NC[C@H]1OC[C@@H](NC2CCC2)[C@@H]1O)c1cccs1 | -0.2259 | -73.12
O=C(COC1CCCC1)N1C[C@@H]2CN(Cc3ccoc3)CCO[C@@H]2C1 | 0.7757 | -
[H][C@]12CC[C@]([H])(CN(C3Cc4ccccc4C3)C1)N(C(=O)COCCOC)C2 | - | 22.18

Repeated from the top, 7 entries:

O=C(NC1CC1)N1CC[C@H]2[C@H]1CCN2c1ncccn1 gave A: -2.762%.
CCOCCCC(=O)NCC(c1ccccc1)N1CCc2sccc2C1 (centres undefined) gave A: 5.285%; B: 7.252%.
Cc1cccc(C(=O)N2CCN(CCOC(C)C)CC2)n1 gave A: -0.3096%; B: -3.695%.
CCC1CN(CC(=O)NCCC#N)CCO1 (centres undefined) gave A: 1.652%; B: 34.44%.
Cc1nc(C2CCN(Cc3ncc[nH]3)CC2)no1 gave A: 9.913%.
Cc1ccc(-n2nnc(CC(=O)N3CCN(C4CC4)CC3)c2C)cc1 gave A: -0.06456%; B: 3.865%.
CCOc1ncccc1NC(=O)N1CCN(c2ccc(O)cc2)CC1 gave A: -0.9676%; B: 36.06%.

From ChEMBL document CHEMBL3988442, “University of Dundee, Small-Polar-MMV Screening Library” (2021).